Here are results for 1 molecule from the supplement of paper PMC8728848.

What all share (experiment): glycan array binding signal (z-score within array); higher = stronger binding
Details in all cases: glycan notation: IUPAC condensed, linker removed

Assay [1] concerns the target Gal(b1-4)GlcNAc(b1-2)[Gal(b1-4)GlcNAc(b1-6)]Man(a1-6)[GlcNAc(b1-4)][Gal(b1-4)GlcNAc(b1-2)Man(a1-3)]Man(b1-4)GlcNAc(b1-4)GlcNAc. The essentials: (§1)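 Arrays were curated from the Consortium for Functional Glycomics database, 3228 in total, and kept only where the protein sequence was available. Binding is expressed as a within-array Z-score. This score was averaged across arrays of the same protein sequence at different concentrations or buffers and across linkers, and negative values can be read as non-binding.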

The target of assay [2] is Gal(b1-4)GlcNAc(b1-2)[Gal(b1-4)GlcNAc(b1-6)]Man(a1-6)[GlcNAc(b1-4)][Gal(b1-4)GlcNAc(b1-2)[Gal(b1-4)GlcNAc(b1-4)]Man(a1-3)]Man(b1-4)GlcNAc(b1-4)[Fuc(a1-6)]GlcNAc. The essentials: as §1
The target of assay [3] is Gal(b1-4)GlcNAc(b1-3)Gal(b1-3)GalNAc. Summed up:
as §1

The target of assay [4] is Gal(b1-4)GlcNAc(b1-3)Gal(b1-3)GlcNAc. Summed up: as §1
For assay [5], the target named is Gal(b1-4)GlcNAc(b1-3)Gal(b1-4)Glc. Summed up:
as §1

Assay [6] has as its target Gal(b1-4)GlcNAc(b1-3)Gal(b1-4)GlcNAc. The essentials:
as §1

The target in assay [7] is Gal(b1-4)GlcNAc(b1-3)Gal(b1-4)GlcNAc(b1-2)Man(a1-3)[Gal(b1-4)GlcNAc(b1-3)Gal(b1-4)GlcNAc(b1-2)Man(a1-6)]Man(b1-4)GlcNAc(b1-4)GlcNAc. Summed up:
as §1

Assay [8] addresses Gal(b1-4)GlcNAc(b1-3)Gal(b1-4)GlcNAc(b1-2)Man(a1-3)[Gal(b1-4)GlcNAc(b1-3)Gal(b1-4)GlcNAc(b1-2)Man(a1-6)]Man(b1-4)GlcNAc(b1-4)[Fuc(a1-6)]GlcNAc. Summed up:
as §1

The target of assay [9] is Gal(b1-4)GlcNAc(b1-3)Gal(b1-4)GlcNAc(b1-2)[Gal(b1-4)GlcNAc(b1-3)Gal(b1-4)GlcNAc(b1-6)]Man(a1-6)[Gal(b1-4)GlcNAc(b1-3)Gal(b1-4)GlcNAc(b1-2)Man(a1-3)]Man(b1-4)GlcNAc(b1-4)GlcNAc. The essentials:
as §1

Assay [10] deals with Gal(b1-4)GlcNAc(b1-3)Gal(b1-4)GlcNAc(b1-2)[Gal(b1-4)GlcNAc(b1-3)Gal(b1-4)GlcNAc(b1-6)]Man(a1-6)[Gal(b1-4)GlcNAc(b1-3)Gal(b1-4)GlcNAc(b1-2)Man(a1-3)]Man(b1-4)GlcNAc(b1-4)[Fuc(a1-6)]GlcNAc. The essentials: as §1
Assay [11] concerns the target Gal(b1-4)GlcNAc(b1-3)Gal(b1-4)GlcNAc(b1-3)Gal(b1-4)GlcNAc. Summed up: as §1
Assay [12] has as its target Gal(b1-4)GlcNAc(b1-3)Gal(b1-4)GlcNAc(b1-3)Gal(b1-4)GlcNAc(b1-2)Man(a1-3)[Gal(b1-4)GlcNAc(b1-3)Gal(b1-4)GlcNAc(b1-3)Gal(b1-4)GlcNAc(b1-2)Man(a1-6)]Man(b1-4)GlcNAc(b1-4)GlcNAc. Summed up: as §1
The target of assay [13] is Gal(b1-4)GlcNAc(b1-3)Gal(b1-4)GlcNAc(b1-3)Gal(b1-4)GlcNAc(b1-2)Man(a1-3)[Gal(b1-4)GlcNAc(b1-3)Gal(b1-4)GlcNAc(b1-3)Gal(b1-4)GlcNAc(b1-2)Man(a1-6)]Man(b1-4)GlcNAc(b1-4)[Fuc(a1-6)]GlcNAc. Summed up: as §1
The target of assay [14] is Gal(b1-4)GlcNAc(b1-3)Gal(b1-4)GlcNAc(b1-3)Gal(b1-4)GlcNAc(b1-2)[Gal(b1-4)GlcNAc(b1-3)Gal(b1-4)GlcNAc(b1-3)Gal(b1-4)GlcNAc(b1-6)]Man(a1-6)[Gal(b1-4)GlcNAc(b1-3)Gal(b1-4)GlcNAc(b1-3)Gal(b1-4)GlcNAc(b1-2)Man(a1-3)]Man(b1-4)GlcNAc(b1-4)[Fuc(a1-6)]GlcNAc. Summed up:
as §1

The target of assay [15] is Gal(b1-4)GlcNAc(b1-3)Gal(b1-4)GlcNAc(b1-3)Gal(b1-4)GlcNAc(b1-3)Gal(b1-4)GlcNAc(b1-2)Man(a1-3)[Gal(b1-4)GlcNAc(b1-3)Gal(b1-4)GlcNAc(b1-3)Gal(b1-4)GlcNAc(b1-3)Gal(b1-4)GlcNAc(b1-2)Man(a1-6)]Man(b1-4)GlcNAc(b1-4)GlcNAc. The essentials: as §1
The target of assay [16] is Gal(b1-4)GlcNAc(b1-3)Gal(b1-4)GlcNAc(b1-3)Gal(b1-4)GlcNAc(b1-3)Gal(b1-4)GlcNAc(b1-2)Man(a1-3)[Gal(b1-4)GlcNAc(b1-3)Gal(b1-4)GlcNAc(b1-3)Gal(b1-4)GlcNAc(b1-3)Gal(b1-4)GlcNAc(b1-2)Man(a1-6)]Man(b1-4)GlcNAc(b1-4)[Fuc(a1-6)]GlcNAc. The essentials:
as §1

Assay [17] has as its target Gal(b1-4)GlcNAc(b1-3)Gal(b1-4)GlcNAc(b1-3)Gal(b1-4)GlcNAc(b1-3)Gal(b1-4)GlcNAc(b1-2)[Gal(b1-4)GlcNAc(b1-3)Gal(b1-4)GlcNAc(b1-3)Gal(b1-4)GlcNAc(b1-3)Gal(b1-4)GlcNAc(b1-6)]Man(a1-6)[Gal(b1-4)GlcNAc(b1-3)Gal(b1-4)GlcNAc(b1-3)Gal(b1-4)GlcNAc(b1-3)Gal(b1-4)GlcNAc(b1-2)Man(a1-3)]Man(b1-4)GlcNAc(b1-4)[Fuc(a1-6)]GlcNAc. Summed up: as §1
Assay [18] concerns the target Gal(b1-4)GlcNAc(b1-3)Gal(b1-4)GlcNAc(b1-3)Gal(b1-4)GlcNAc(b1-3)Gal(b1-4)GlcNAc(b1-3)Gal(b1-4)GlcNAc(b1-2)Man(a1-3)[Gal(b1-4)GlcNAc(b1-3)Gal(b1-4)GlcNAc(b1-3)Gal(b1-4)GlcNAc(b1-3)Gal(b1-4)GlcNAc(b1-3)Gal(b1-4)GlcNAc(b1-2)Man(a1-6)]Man(b1-4)GlcNAc(b1-4)GlcNAc. Summed up: as §1
Assay [19] concerns the target Gal(b1-4)GlcNAc(b1-3)Gal(b1-4)GlcNAc(b1-3)Gal(b1-4)GlcNAc(b1-3)Gal(b1-4)GlcNAc(b1-3)Gal(b1-4)GlcNAc(b1-2)Man(a1-3)[Gal(b1-4)GlcNAc(b1-3)Gal(b1-4)GlcNAc(b1-3)Gal(b1-4)GlcNAc(b1-3)Gal(b1-4)GlcNAc(b1-3)Gal(b1-4)GlcNAc(b1-2)Man(a1-6)]Man(b1-4)GlcNAc(b1-4)[Fuc(a1-6)]GlcNAc. Summed up: as §1
Assay [20] addresses Gal(b1-4)GlcNAc(b1-3)Gal(b1-4)GlcNAc(b1-3)Gal(b1-4)GlcNAc(b1-3)Gal(b1-4)GlcNAc(b1-3)Gal(b1-4)GlcNAc(b1-2)[Gal(b1-4)GlcNAc(b1-3)Gal(b1-4)GlcNAc(b1-3)Gal(b1-4)GlcNAc(b1-3)Gal(b1-4)GlcNAc(b1-3)Gal(b1-4)GlcNAc(b1-6)]Man(a1-6)[Gal(b1-4)GlcNAc(b1-3)Gal(b1-4)GlcNAc(b1-3)Gal(b1-4)GlcNAc(b1-3)Gal(b1-4)GlcNAc(b1-3)Gal(b1-4)GlcNAc(b1-2)Man(a1-3)]Man(b1-4)GlcNAc(b1-4)[Fuc(a1-6)]GlcNAc. Summed up:
as §1

In assay [21] the target is Gal(b1-4)GlcNAc(b1-3)Gal(b1-4)GlcNAc(b1-3)Gal(b1-4)GlcNAc(b1-3)Gal(b1-4)GlcNAc(b1-3)Gal(b1-4)GlcNAc(b1-3)Gal(b1-4)GlcNAc(b1-2)Man(a1-3)[Gal(b1-4)GlcNAc(b1-3)Gal(b1-4)GlcNAc(b1-3)Gal(b1-4)GlcNAc(b1-3)Gal(b1-4)GlcNAc(b1-3)Gal(b1-4)GlcNAc(b1-3)Gal(b1-4)GlcNAc(b1-2)Man(a1-6)]Man(b1-4)GlcNAc(b1-4)GlcNAc. The essentials:
as §1

Assay [22] addresses Gal(b1-4)GlcNAc(b1-3)Gal(b1-4)GlcNAc(b1-3)GalNAc. The essentials:
as §1

For assay [23], the target named is Gal(b1-4)GlcNAc(b1-3)Gal(b1-4)GlcNAc(b1-3)[Gal(b1-4)GlcNAc(b1-3)Gal(b1-4)GlcNAc(b1-6)]GalNAc. Summed up:
as §1

The list shows a part of the results.

B1: pilr alpha (protein)
chain: MLYGVTQPKHLSASMGGSVEIPFSFYYPWELATAPDVRISWRRGHFHRQSFYSTRPPSIHKDYVNRLFLNWTEGQKSGFLRISNLQKQDQSVYFCRVELDTRSSGRQQWQSIEGTKLSIT
Regarding B1, the “glycan array binding signal (z-score)” value is 0.049 in assay [1]; 0.011 in assay [2]; -0.279 in assay [3]; -0.421 in assay [4]; -0.15 in assay [5]; -0.268 in assay [6]. The “glycan array binding signal (z-score)” value was 1.41 in assay [7]; 0.273 in assay [8]; -0.209 in assay [9]; 0.377 in assay [10]; -0.614 in assay [11]; 0.361 in [12]. Also, the “glycan array binding signal (z-score)” value in [13] was found to be 0.208; in [14], 0.388; in assay [15], 0.167; in assay [16] it was 0.569; in assay [17], 2.72; in [18] it was 0.101. Further, the “glycan array binding signal (z-score)” value in assay [19] was 0.421; in assay [20] it was 1.59; in [21], 0.681; in [22] it was -0.204; in assay [23] it was 0.527.
